Test results published in PMC3913039.
No constants are given. Whether binding was seen depends on the method and setting. Binding seen in cells or lysates may run through a third protein. Some entries that bind do so weakly or less than the wild type.

By UniProt entry, the sequences of proteins in these tests, tags left out. Residues count along the entry.
UniProt P38377: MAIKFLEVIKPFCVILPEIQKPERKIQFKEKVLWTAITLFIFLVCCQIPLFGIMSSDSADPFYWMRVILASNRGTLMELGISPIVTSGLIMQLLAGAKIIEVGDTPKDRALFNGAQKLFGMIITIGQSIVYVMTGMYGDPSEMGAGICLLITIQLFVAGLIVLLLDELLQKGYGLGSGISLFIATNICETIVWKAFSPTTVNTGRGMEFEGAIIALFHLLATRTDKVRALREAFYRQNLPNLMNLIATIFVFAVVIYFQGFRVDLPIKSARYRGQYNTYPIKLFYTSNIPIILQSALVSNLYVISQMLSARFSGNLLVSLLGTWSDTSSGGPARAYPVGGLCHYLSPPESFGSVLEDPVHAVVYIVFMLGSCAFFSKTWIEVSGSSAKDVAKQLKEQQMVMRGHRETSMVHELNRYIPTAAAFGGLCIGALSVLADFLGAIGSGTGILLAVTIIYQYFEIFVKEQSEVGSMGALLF
UniProt P60467: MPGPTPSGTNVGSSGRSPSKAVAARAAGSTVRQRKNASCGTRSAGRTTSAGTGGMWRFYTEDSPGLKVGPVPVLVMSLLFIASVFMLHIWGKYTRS
UniProt P01375, residues 1-123: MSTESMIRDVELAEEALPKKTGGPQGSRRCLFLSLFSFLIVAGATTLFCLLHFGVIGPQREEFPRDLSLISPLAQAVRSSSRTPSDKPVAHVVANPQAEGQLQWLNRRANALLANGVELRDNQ

Experiments:
[1] = molecular target: Sec61α of canine rough microsomes (dog (endogenous in canine rough microsomes)) (UniProt P38377); assay: cross-linking; with CT8 (1 μM, or titrated): microsome-targeted RNCs (canine rough microsomes) isolated through a high-salt sucrose cushion, 50 μM bis-maleimidohexane (BMH, ~13 Å) 30 min at 0°C; SDS-PAGE and autoradiography; partners identified by denaturing immunoprecipitation
[2] = molecular target: Sec61β of canine rough microsomes (dog (endogenous in canine rough microsomes)) (UniProt P60467); assay: as above

wild-type TNFα 126-mer ribosome-nascent chain complex (from UniProt P01375 1-123) (domain or fragment)
binding [1]: binds | binding [2]: binds
